# Among all 340,000 compounds or so, about 6,200 (1.8%) were called active. The inconclusive results got no clear call from the source; some entries with a clear call stand among them for comparison. The call rests on the fitted dose curve; in most records, active means well fitted activation curve with a large enough effect; inconclusive means small, poorly fitted or top-dose-only effect; inactive means no such curve, though single readings can be large or run the other way. Where the call is inconclusive, the potency comes from a doubtful curve fit.
# Experiment: A quantitative high throughput screen for small molecules that induce DNA re-replication in SW480 colon adenocarcinoma cells. Further: nearly all actives have a fitted effect of over 55% in size. On re-replication activation: % of control where 0% means no effect.
# Conditions: Hoechst DNA content imaging, 48 h; re-replication activation: at 46.1 µM (top of the series) unless noted
# Procedure, shortened: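 First, 250 cells per well were seeded. Next, compound or vehicle (23 nL) was pinned in, plates sat 48 hr at 37 C. Finally Hoechst was added for 40 min before fluorescence scanning.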
# Potency means the concentration at half of the fitted maximal effect.
Compound,Potency,re-replication activation
CCN1C(=O)c2cccc3c(NC(=O)c4ccc5c(c4)OCCO5)ccc1c23,"inconclusive: 32.6 µM [activator, partial curve, poor fit]",
COc1cccc(-c2nc(NCCN3CCOCC3)c3ccccc3n2)c1O,"inconclusive: 25.9 µM [activator, partial curve, poor fit]",
O=C(Nc1nnc(-c2ccc(F)cc2)o1)c1cccc([N+](=O)[O-])c1,"inconclusive: 11.6 µM [activator, partial curve, poor fit]",
CCN1CCC[C@H]1CNC(=O)c1c(O)c(Cl)cc(Cl)c1OC,"inconclusive: 0.259 µM [activator, single point]",
CC1CN(C(=O)c2cccc(Oc3ccccc3)c2)CC(C)O1 (stereo not given),"inconclusive: 4.11 µM [activator, full curve, poor fit]",
Cc1cccc(OC2(c3ccccc3)OC(=O)c3ccccc32)c1C (stereo not given),"inconclusive: 18.4 µM [activator, partial curve, poor fit]",
O=C(NCCN1CCOCC1)c1ccc(/C=C2\Sc3ccccc3N(Cc3ccccc3F)C2=O)cc1,active: 18.4 µM,
O=C(Nc1ccccc1N1CCN(C(=O)c2ccccc2)CC1)c1cc(Br)ccc1Cl,"inconclusive: 16.4 µM [activator, partial curve, poor fit]",
C=CCSc1nc2ccccc2c2nc(-c3ccccc3)nn12,"inconclusive: 6.51 µM [activator, partial curve, poor fit]",
Cc1ccc2nc(SC(C(=O)Nc3ccc(F)cc3)c3ccccc3)[nH]c2c1 (stereo not given),"inconclusive: 29.1 µM [activator, single point]",
CC(=O)NNC(=S)NC(=O)C(c1ccccc1)c1ccccc1,,inactive: 26.8%
C#CCn1c(=NC(=O)c2ccco2)sc2cccc(Cl)c21,,inactive: 26.7%
Cc1ccc(-c2nc(CN(CC3CCC3)CC3CCCO3)c(C)o2)s1 (stereo not given),,inactive: 0.899%
COc1ccc(-c2[nH]ncc2CN(C)Cc2nonc2C)c(OC)c1,"inconclusive: 6.51 µM [activator, single point]",
Cc1c(C=O)c2ccccc2n1CCOc1ccccc1,,inconclusive: -2.24% [activator]
CCOC(=O)N1CCC2(CC1)C(C#N)=C(N)Oc1c2sc2nc(C)cc(C)c12,"inconclusive: 29.1 µM [activator, single point]",
COc1ccc(OC)c2sc(N3CCN(C(=O)c4ccc([N+](=O)[O-])s4)CC3)nc12,"inconclusive: 29.1 µM [activator, single point]",
Cc1ccc(C(=O)Nc2ccccc2N2CCCCC2)cc1S(=O)(=O)N1CCOCC1,,inactive: -23.8%
COc1ccc(COc2cc(-c3cccc(OC)c3)nc3ccc(NC(=O)c4ccc(C)cc4)cc23)cc1,active: 20.6 µM,
Cc1cccc(-n2c(-c3csc4ccccc34)n[nH]c2=S)c1,,inactive: -1.12%
CC(C)(C)n1ncc(Oc2ccccc2[N+](=O)[O-])c(Cl)c1=O,"inconclusive: 18.4 µM [activator, partial curve, poor fit]",
NC(=O)c1ccsc1NC(=O)CCS(=O)(=O)c1ccc(F)cc1,"inconclusive: 29.1 µM [activator, partial curve, poor fit]",

Compound,Potency,re-replication activation
CCCCOC(=O)Nc1ccc(S(=O)(=O)Nc2onc(C)c2C)cc1,,inactive: -4.37%
Cc1nn(-c2ccccc2)c(N)c1Sc1ccccc1[N+](=O)[O-],"inconclusive: 0.164 µM [activator, full curve, poor fit]",
O=C(NCC1CCCO1)C1CCN(C2CCN(CCCC3CCCC3)CC2)CC1 (stereo not given),"inconclusive: 29.1 µM [activator, single point]",
COc1ccc(Cl)cc1N1C(=O)/C(=C/c2sccc2C)N=C1SCC(=O)NC1CC1,"inconclusive: 23.1 µM [activator, single point]",
CN(Cc1nc2ccccc2[nH]1)C(=O)C1CCC(=O)N(CCc2cccc(F)c2)C1 (stereo not given),,inactive: -2.78%
CCOc1cc(O)c(-c2[nH]ncc2-c2nc(C)cs2)cc1CC,"inconclusive: 16.4 µM [activator, single point]",
Cc1ccc(S(=O)(=O)NCC(=O)OCC(=O)NCc2ccco2)cc1,,inactive: -1.74%
CCCCn1c(N)c(N(CCOC)C(=O)CCNC(=O)c2ccc(Cl)cc2)c(=O)[nH]c1=O,"inconclusive: 5.17 µM [activator, full curve, poor fit]",
O=C1C2C3C=CC(C4CC34)C2C(=O)N1/N=C/c1ccc(-c2ccc([N+](=O)[O-])cc2)o1 (stereo not given),"inconclusive: 0.411 µM [activator, full curve, poor fit]",
O=C(N[C@@H]1C/C=C\C[C@H](CC(=O)N(CCO)Cc2ccccc2)C(=O)N[C@@H](Cc2c[nH]c3ccccc23)COC1=O)OCC1c2ccccc2-c2ccccc21,"inconclusive: 2.91 µM [activator, single point]",
COc1ccc(C2/C=C\CC(NS(=O)(=O)c3ccc(C)cc3)CC(=O)N2Cc2ccccc2F)cc1 (stereo not given),"inconclusive: 29.1 µM [activator, single point]",
C=CCC1(CC=C)CCCN1C(=O)C1CCC(=O)N(CCc2ccc(Cl)cc2)C1 (stereo not given),"inconclusive: 20.6 µM [activator, partial curve, poor fit]",
CC(C)OC(=O)c1cn(-c2ccccc2)nc1-c1ccc2c(c1)OCCO2,,inactive: 1.85%
COc1cccc2nc3c(C(=O)NCCN(C)C)cccc3cc12,active: 9.2 µM,
COc1ccc(N2CCN(c3nc4ccccn4c(=O)c3/C=C(\C#N)S(=O)(=O)c3ccccc3)CC2)cc1,,inactive: 4.93%
COc1ccc(/C=C/C(=O)c2ccc(NC3=NCCCS3)cc2)cc1OC,"inconclusive: 29.1 µM [activator, single point]",
CN(C)CCCNc1oc(/C=C/c2cccs2)nc1S(=O)(=O)c1ccccc1,active: 11.6 µM,
O=C(Cc1ccc(NC(=O)C2CCCN(C(=O)C3CCCCC3)C2)cc1)Nc1cccc(C(=O)N2CCCCC2)c1 (stereo not given),,inactive: 5.52% [at 9.22 µM]
CN(Cc1ccccc1)C(=O)c1ccc(NC(=O)Cc2ccc(NC(=O)C3CCCN(C(=O)C4CCC4)C3)cc2)cc1 (stereo not given),"inconclusive: 25.9 µM [activator, partial curve, poor fit]",
c1ccc2c(C[n+]3csc4ccccc43)cccc2c1,"inconclusive: 23.1 µM [activator, single point]",
N#C/C(=N\Nc1ccc(Cl)cc1)C(=O)c1ccsc1,"inconclusive: 2.91 µM [activator, partial curve, poor fit]",
COc1ccc(N/C=C/C(=O)c2sc(-c3ccccc3)nc2C)cc1,"inconclusive: 29.1 µM [activator, single point]",

Compound,Potency,re-replication activation
S=C(NCc1ccco1)Nc1cc(-c2ccccc2)[nH]n1,"inconclusive: 1.64 µM [activator, single point]",
N#CC1=C(N)Oc2n[nH]c(-c3cccs3)c2C1c1cccs1 (stereo not given),,inactive: -4.87%
COCCNC(=O)c1ccc(C2SCC(=O)N2CCc2ccccc2)cc1 (stereo not given),,inconclusive: 65.2% [activator]
CCn1cc(C(=O)N[C@H](C)c2ccccc2)c(=O)c2cc(F)c(N3CCN(C)CC3)cc21,"inconclusive: 18.4 µM [activator, single point]",
CN(C)CC(C)(C)CNC(=O)C1CCN(CCCc2ccccc2)CC1,"inconclusive: 11.6 µM [activator, single point]",
CCC(C)Nc1nc(SC(C(C)=O)C(C)=O)nc(N(C)C)n1 (stereo not given),,inactive: -0.169%
CC(C)CNCC1OCc2ccccc2CO1,"inconclusive: 3.66 µM [activator, single point]",
O=C(Cc1ccccc1)NCC(=O)N1CCN(c2ccccc2F)CC1,,inactive: 0.689%
COc1ccc(-c2nc(N3CCN(C)CC3)sc2-c2ccc(OC)cc2)cc1,"inconclusive: 29.1 µM [activator, single point]",
Cc1cc(C)cc(NC(=O)C(=O)NCCCN2CCOCC2)c1,"inconclusive: 14.6 µM [activator, partial curve, poor fit]",
CCN(CC(=O)Nc1c(F)cccc1F)C(=O)c1cccc(S(=O)(=O)NCc2ccccc2)c1,"inconclusive: 14.6 µM [activator, partial curve, poor fit]",
COC(=O)Cc1c(C)c2ccc(OCC(=O)N3CCC(C)CC3)c(C)c2oc1=O,"inconclusive: 29.1 µM [activator, single point]",
COc1ccc(/C=C/c2cc(C(=O)O)c3ccccc3n2)cc1,"inconclusive: 29.1 µM [activator, single point]",
CC1(C)Cc2c(C#N)c(NCC3CCCO3)nc(-c3ccco3)c2CO1 (stereo not given),"inconclusive: 13 µM [activator, partial curve]",
CCOC(=O)C1=C(C)OC(N)=C(C#N)C1c1ccc(C)o1 (stereo not given),"inconclusive: 6.51 µM [activator, single point]",
COc1ccc(NC(=O)c2oc3ccccc3c2NC(=O)C(C)(C)C)cc1,,inactive: 13.9%
COCC1CCCCN1C(=O)c1ccc2nc(Cc3ccc(OC)c(OC)c3)oc2c1 (stereo not given),,inactive: -7.09%
CCOc1ccccc1N1CCN(C(=O)CC(C)(C)C)CC1,"inconclusive: 0.164 µM [activator, full curve]",
Cc1ccc(OCCNS(=O)(=O)c2ccc(N3CCCC3=O)cc2)cc1C,"inconclusive: 29.1 µM [activator, single point]",
CC/C(=N\Nc1ccnc2cc(Cl)ccc12)c1ccc(O)cc1,"inconclusive: 23.1 µM [activator, single point]",
COC(=O)C1=C(C)N(C)C(=O)NC1c1ccsc1 (stereo not given),"inconclusive: 29.1 µM [activator, single point]",

# Structures shown so far with a nitro group on carbon (five):
Compound,Potency,re-replication activation
O=C(Nc1nnc(-c2ccc(F)cc2)o1)c1cccc([N+](=O)[O-])c1,"inconclusive: 11.6 µM [activator, partial curve, poor fit]",
COc1ccc(OC)c2sc(N3CCN(C(=O)c4ccc([N+](=O)[O-])s4)CC3)nc12,"inconclusive: 29.1 µM [activator, single point]",
CC(C)(C)n1ncc(Oc2ccccc2[N+](=O)[O-])c(Cl)c1=O,"inconclusive: 18.4 µM [activator, partial curve, poor fit]",
Cc1nn(-c2ccccc2)c(N)c1Sc1ccccc1[N+](=O)[O-],"inconclusive: 0.164 µM [activator, full curve, poor fit]",
O=C1C2C3C=CC(C4CC34)C2C(=O)N1/N=C/c1ccc(-c2ccc([N+](=O)[O-])cc2)o1 (stereo not given),"inconclusive: 0.411 µM [activator, full curve, poor fit]",

# Reference: PubChem BioAssay AID624297 (National Center for Advancing Translational Sciences (NCATS), 2012)
